Test results reported in paper PMC12777490.
Results are given in words; binding and its absence hold for the method and conditions named. In cells and extracts the contact can be indirect. Some binding calls cover weakened binding; strength is not graded here.

Amino acid sequences for entries named in this document (tags omitted).
UniProt Q16637: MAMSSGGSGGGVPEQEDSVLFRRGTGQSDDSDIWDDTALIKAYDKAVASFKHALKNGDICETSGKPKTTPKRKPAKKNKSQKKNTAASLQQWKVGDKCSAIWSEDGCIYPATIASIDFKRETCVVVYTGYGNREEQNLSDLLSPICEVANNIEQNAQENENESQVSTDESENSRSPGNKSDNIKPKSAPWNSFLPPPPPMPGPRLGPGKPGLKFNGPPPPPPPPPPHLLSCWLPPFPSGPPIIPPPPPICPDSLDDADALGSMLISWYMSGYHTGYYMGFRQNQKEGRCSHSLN

Assays:
[1] = target: SBP-tagged SMN1 protein, Q16637; test: pull-down; SBP-tagged SMN1 co-transfected with the other SMN constituent proteins without a tag in HEK293T; cleared lysate (TBS, 1% Triton X-100) incubated with Dynabeads M-280 Streptavidin for 30 min, washed, eluted by boiling in SDS sample buffer; SDS-PAGE, Strep-Tactin HRP blot and silver staining beside lysates expressing single proteins; details: remark: other sources report otherwise
SBP-tagged SMN1 protein = SBP-tagged SMN1 protein (UniProt Q16637); test: as above

B1: Gemin4, P57678 1-1058 (protein)
chain: MDLGPLNICEEMTILHGGFLLAEQLFHPKALAELTKSDWERVGRPIVEALREISSAAAHSQPFAWKKKALIIIWAKVLQPHPVTPSDTETRWQEDLFFSVGNMIPTINHTILFELLKSLEASGLFIQLLMALPTTICHAELERFLEHVTVDTSAEDVAFFLDVWWEVMKHKGHPQDPLLSQFSAMAHKYLPALDEFPHPPKRLRSDPDACPTMPLLAMLLRGLTQIQSRILGPGRKCCALANLADMLTVFALTEDDPQEVSATVYLDKLATVISVWNSDTQNPYHQQALAEKVKEAERDVSLTSLAKLPSETIFVGCEFLHHLLREWGEELQAVLRSSQGTSYDSYRLCDSLTSFSQNATLYLNRTSLSKEDRQVVSELAECVRDFLRKTSTVLKNRALEDITASIAMAVIQQKMDRHMEVCYIFASEKKWAFSDEWVACLGSNRALFRQPDLVLRLLETVIDVSTADRAIPESQIRQVIHLILECYADLSLPGKNKVLAGILRSWGRKGLSEKLLAYVEGFQEDLNTTFNQLTQSASEQGLAKAVASVARLVIVHPEVTVKKMCSLAVVNLGTHKFLAQILTAFPALRFVEEQGPNSSATFMVSCLKETVWMKFSTPKEEKQFLELLNCLMSPVKPQGIPVAALLEPDEVLKEFVLPFLRLDVEEVDLSLRIFIQTLEANACREEYWLQTCSPFPLLFSLCQLLDRFSKYWQLPKEKRCLSLDRKDLAIHILELLCEIVSANAETFSPDVWIKSLSWLHRKLEQLDWTVGLRLKSFFEGHFKCEVPATLFEICKLSEDEWTSQAHPGYGAGTGLLAWMECCCVSSGISERMLSLLVVDVGNPEEVRLFSKGFLVALVQVMPWCSPQEWQRLHQLTRRLLEKQLLHVPYSLEYIQFVPLLNLKPFAQELQLSVLFLRTFQFLCSHSCRDWLPLEGWNHVVKLLCGSLTRLLDSVRAIQAAGPWVQGPEQDLTQEALFVYTQVFCHALHIMAMLHPEVCEPLYVLALETLTCYETLSKTNPSVSSLLQRAHEQRFLKSIAEGIGPEERRQTLLQKMSSF
[1]
  binding: binds

B2: Gemin8 (protein, UniProt Q9NWZ8 1-242)
chain: MAAVKASTSKATRPWYSHPVYARYWQHYHQAMAWMQSHHNAYRKAVESCFNLPWYLPSALLPQSSYDNEAAYPQSFYDHHVAWQDYPCSSSHFRRSGQHPRYSSRIQASTKEDQALSKEEEMETESDAEVECDLSNMEITEELRQYFAETERHREERRRQQQLDAERLDSYVNADHDLYCNTRRSVEAPTERPGERRQAEMKRLYGDSAAKIQAMEAAVQLSFDKHCDRKQPKYWPVIPLKF
SBP-tagged SMN1 protein
  binding: binds
